According to the supplement of paper PMC7877785:
± gives the uncertainty stated by the source. Many entries were measured with a wide error.

Experiment: self-splicing fitness, log relative to wild type (ln ratio); higher = more splicing; Tetrahymena group I intron in knt gene, E. coli kanamycin selection, DiMSum; sequences stand for … in CUCUCU…GGAGGGAAAAGUUAUCAGGCAUGCACCUGGUAGCUAGUCUUUAAACCAAUAGAUUGCAUCGGUUUAAAAGGCAAGACCGUCAAAUUGCGGGAAAGGGGUCAACAGCCGUUCAGUACCAAGUCUCAGGGGAAACUUUGAGAUGGCCUUGCAAAGGGUAUGGUAAUAAGCUGACGGACAUGGUCCUAACCACGCAGCCAAGUCCUAAGUCAACAGAUCUUCUGUUGAUAUGGAUGCAGUUCACAGACUAAAUGUCGGUCGGGGAAGAUGUAUUCUUCUCAUAAGAUAUAGUCGGACCUCUCCUUAAUGGGAGCUAGCGGAUGAAGUGAUGCAACACUGGAGCCGCUGGGAACUAAUUUGUAUGCGAAAGUAUAUUGAUUAGUUUUGGAGUACUCGUGGUCG
Procedure, shortened: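 The eight P1ex-region nucleotides of an intron in the knt kanamycin-resistance gene on pET-22b(+) were all randomised and the library put into E. coli BL21(DE3). Six replicate transformations were grown overnight at 37°C or 30°C on LB agar with or without 25 μg/mL kanamycin, together with 100 μg/mL carbenicillin, 50 μM IPTG and 0.2% rhamnose. Colonies were pooled and amplicon-sequenced on an Illumina HiSeq 2500. Fitness from DiMSum is the error-weighted combination of wild-type-normalised replicate fold changes, kanamycin over none.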

Sequence	self-splicing fitness (ln) (30 °C)	self-splicing fitness (ln) (37 °C)
GGCCAGCAAUAUUACGUAAA	-1.26 ± 0.11	-0.35 ± 0.14
CCAAAGCAAUAUUACGAAGC		-2.02 ± 0.54
AGAUAGCAAUAUUACGUUAC		-2.97 ± 0.6
CUUUAGCAAUAUUACGCCAA		-1.13 ± 0.71
GACGAGCAAUAUUACGAGCG		-1.79 ± 1.2
UGUUAGCAAUAUUACGGGAU		-2.83 ± 0.61
CAGGAGCAAUAUUACGCCAC	-2.97 ± 0.53	-1.9 ± 0.52
CAAUAGCAAUAUUACGUAGU	-3.31 ± 0.29	-2.44 ± 0.22
UGUAAGCAAUAUUACGCCCC	-0.00987 ± 0.86	-0.673 ± 0.73
GCAUAGCAAUAUUACGACGG	-2.5 ± 0.63	
UCAGAGCAAUAUUACGUCAU		-2.26 ± 0.55
GCUGAGCAAUAUUACGAAUG	-2.91 ± 0.53	
UCUAAGCAAUAUUACGCAGA	-3.98 ± 0.52	
UGUGAGCAAUAUUACGAGAC	-1.38 ± 0.64	-2.78 ± 0.62
UCCGAGCAAUAUUACGCCAU	-2.56 ± 0.28	-3.16 ± 0.4
UAGGAGCAAUAUUACGGCCU	-1.19 ± 0.73	0.71 ± 0.55
AGACAGCAAUAUUACGCCAC	-4.13 ± 0.72	-2.13 ± 0.56
GAUGAGCAAUAUUACGGGUC	-3.5 ± 1	-3.19 ± 0.52
GUAUAGCAAUAUUACGUUGC		-3.27 ± 0.52

Sequence	self-splicing fitness (ln) (30 °C)	self-splicing fitness (ln) (37 °C)
UUUGAGCAAUAUUACGCCAA	-4.36 ± 0.72	
AUUUAGCAAUAUUACGCCAA	-2.09 ± 1.4	-0.595 ± 1.4
GGCCAGCAAUAUUACGUCCU	-1.47 ± 0.21	-0.4 ± 0.17
CUUGAGCAAUAUUACGUUUC	-3.44 ± 0.27	-2.68 ± 0.36
GGGGAGCAAUAUUACGUGAC	-1.86 ± 0.6	-2.02 ± 0.53
AGCGAGCAAUAUUACGAGAA	-3.16 ± 1	-1.13 ± 1.2
UUUUAGCAAUAUUACGCUUC	-2.99 ± 0.61	
CUUUAGCAAUAUUACGAAGC	-2.42 ± 0.51	-0.415 ± 0.79
CGCGAGCAAUAUUACGCCUA	-1.16 ± 0.56	
AGGGAGCAAUAUUACGGUUC	-4.3 ± 0.73	
CGGCAGCAAUAUUACGCCGC		-2.05 ± 0.51
AGUGAGCAAUAUUACGGAGG	-3.77 ± 0.28	-2.67 ± 0.27
GGUCAGCAAUAUUACGUUCG	-0.853 ± 0.093	0.373 ± 0.13
AUCAAGCAAUAUUACGCUUC	-3.3 ± 0.66	
AAACAGCAAUAUUACGACAU	-0.514 ± 0.011	-0.112 ± 0.032
GUGGAGCAAUAUUACGCUAU	-2.85 ± 0.25	-2.26 ± 0.5
CCAUAGCAAUAUUACGAUAA	-4.43 ± 0.74	
AGCGAGCAAUAUUACGCCCC	-2.76 ± 0.51	
GGAGAGCAAUAUUACGGAGU	-4.72 ± 0.59	

Some of the entries so far, bar-delimited:
Sequence | self-splicing fitness (ln) (30 °C) | self-splicing fitness (ln) (37 °C)
UCCGAGCAAUAUUACGCCAU | -2.56 ± 0.28 | -3.16 ± 0.4
UAGGAGCAAUAUUACGGCCU | -1.19 ± 0.73 | 0.71 ± 0.55
AGACAGCAAUAUUACGCCAC | -4.13 ± 0.72 | -2.13 ± 0.56

Next part.

Sequence	self-splicing fitness (ln) (30 °C)	self-splicing fitness (ln) (37 °C)
GUUUAGCAAUAUUACGCACG		0.181 ± 0.84
UGAGAGCAAUAUUACGUGAC	-3.28 ± 0.6	-2.24 ± 0.66
GCCGAGCAAUAUUACGGAGC		-2.64 ± 1.1
UCCAAGCAAUAUUACGGCUC	-3.84 ± 0.37	-2.85 ± 0.62
GGCUAGCAAUAUUACGAAAU	-1.67 ± 0.22	0.0518 ± 0.2
UCGAAGCAAUAUUACGCGAC	-3.47 ± 0.25	-2.2 ± 0.26
UUUGAGCAAUAUUACGGUGG		-2.54 ± 1.1
CAAGAGCAAUAUUACGCAGC	-3.83 ± 0.73	-2.07 ± 0.79
UGAUAGCAAUAUUACGAACC	-2.25 ± 1.1	
GACGAGCAAUAUUACGCCAC	-0.828 ± 1	-0.352 ± 0.56
UGAAAGCAAUAUUACGCGAA	-1.52 ± 0.17	-1.05 ± 0.2
GAUCAGCAAUAUUACGCAGG	-3.3 ± 0.29	-1.09 ± 0.12
AGUAAGCAAUAUUACGCAAC	-3.45 ± 0.55	
GCAGAGCAAUAUUACGGAUU		-3.15 ± 0.73
GGUGAGCAAUAUUACGUGGC	-4.03 ± 0.59	
UCUUAGCAAUAUUACGAUCC		0.000402 ± 0.62
AUUGAGCAAUAUUACGAGAC	-2.09 ± 1.4	
CGUAAGCAAUAUUACGAAUC	-2.19 ± 0.51	
GAGCAGCAAUAUUACGGCGA	-1.21 ± 0.099	-0.604 ± 0.11
